Reference: article PMC5386455
These are yes or no findings as the source states them, for the method shown. In cells and extracts the contact can be indirect. Some entries that bind do so weakly or less than the wild type. One block for each molecule: values may come before it.

By UniProt entry, the sequences of proteins in these tests, tags left out.
UniProt Q8CFI0: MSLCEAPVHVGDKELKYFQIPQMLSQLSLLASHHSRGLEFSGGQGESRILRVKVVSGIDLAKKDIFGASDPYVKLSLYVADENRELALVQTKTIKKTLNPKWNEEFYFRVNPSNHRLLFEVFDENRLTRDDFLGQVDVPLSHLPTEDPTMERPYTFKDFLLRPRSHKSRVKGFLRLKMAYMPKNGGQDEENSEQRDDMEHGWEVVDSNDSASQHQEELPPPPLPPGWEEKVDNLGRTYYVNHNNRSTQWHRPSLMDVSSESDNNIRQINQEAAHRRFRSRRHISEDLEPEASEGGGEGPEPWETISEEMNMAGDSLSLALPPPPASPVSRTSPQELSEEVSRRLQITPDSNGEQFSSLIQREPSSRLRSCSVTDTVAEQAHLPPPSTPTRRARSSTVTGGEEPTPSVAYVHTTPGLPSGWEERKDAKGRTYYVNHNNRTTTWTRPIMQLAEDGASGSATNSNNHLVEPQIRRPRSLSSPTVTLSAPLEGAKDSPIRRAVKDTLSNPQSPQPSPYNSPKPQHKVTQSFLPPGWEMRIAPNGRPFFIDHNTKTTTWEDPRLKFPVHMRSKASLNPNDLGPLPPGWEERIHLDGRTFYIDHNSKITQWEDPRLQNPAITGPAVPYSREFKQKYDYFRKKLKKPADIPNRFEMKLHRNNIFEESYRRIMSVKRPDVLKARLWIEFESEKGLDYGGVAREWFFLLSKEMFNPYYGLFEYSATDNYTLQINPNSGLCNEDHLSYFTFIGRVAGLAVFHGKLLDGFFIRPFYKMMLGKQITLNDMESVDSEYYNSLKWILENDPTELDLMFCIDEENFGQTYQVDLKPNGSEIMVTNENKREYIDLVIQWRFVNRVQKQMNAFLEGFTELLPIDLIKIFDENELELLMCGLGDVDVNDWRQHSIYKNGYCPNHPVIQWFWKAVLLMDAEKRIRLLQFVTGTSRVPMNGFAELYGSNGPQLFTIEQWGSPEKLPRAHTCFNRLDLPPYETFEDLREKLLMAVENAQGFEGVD
UniProt P43006: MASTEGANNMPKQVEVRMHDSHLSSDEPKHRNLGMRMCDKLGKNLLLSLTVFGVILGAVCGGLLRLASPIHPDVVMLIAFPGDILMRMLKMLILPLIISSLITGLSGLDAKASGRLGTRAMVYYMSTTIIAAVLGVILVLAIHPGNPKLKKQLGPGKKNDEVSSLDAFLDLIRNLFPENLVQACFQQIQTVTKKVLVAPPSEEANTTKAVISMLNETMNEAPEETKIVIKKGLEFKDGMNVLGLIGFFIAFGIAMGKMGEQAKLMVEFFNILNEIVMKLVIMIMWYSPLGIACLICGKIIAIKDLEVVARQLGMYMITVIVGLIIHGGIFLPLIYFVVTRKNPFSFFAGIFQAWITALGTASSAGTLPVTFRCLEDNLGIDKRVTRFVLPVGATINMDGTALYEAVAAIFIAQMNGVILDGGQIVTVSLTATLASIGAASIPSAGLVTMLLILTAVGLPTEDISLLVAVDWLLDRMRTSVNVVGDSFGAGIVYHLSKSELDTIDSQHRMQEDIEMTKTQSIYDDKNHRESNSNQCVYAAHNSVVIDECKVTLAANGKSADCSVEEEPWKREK

How the values were obtained:
[1] = target: Nedd4-2, endogenous in mouse midbrain (mouse (endogenous in C57BL/6 midbrain)) (UniProt Q8CFI0); test: co-IP; midbrain lysates of C57BL/6 mice in RIPA buffer, mice given saline or MPTP for 5 days and killed 3 days after the last injection; protein A/G agarose, Western blot; capture antibody not told
[2] = target: T1, caveolin-1, endogenous in primary astrocytes (not stated (endogenous in primary cortical astrocytes)) (UniProt P49817); test: co-IP; lysates of primary astrocytes in ice-cold RIPA buffer; capture antibody (anti-Nedd4-2, anti-GLT-1 or anti-caveolin-1) overnight at 4 °C, protein A/G agarose 4 h, four washes with RIPA, Western blot; cells untreated or treated with MPP+ (1 mM) or PMA for 24 or 48 h; normal IgG as negative control
T1 sequence: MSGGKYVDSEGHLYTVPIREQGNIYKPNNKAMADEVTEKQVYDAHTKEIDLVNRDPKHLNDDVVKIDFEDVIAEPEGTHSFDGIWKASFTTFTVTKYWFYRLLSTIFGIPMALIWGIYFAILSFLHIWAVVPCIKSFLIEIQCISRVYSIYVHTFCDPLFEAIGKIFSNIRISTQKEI

[3] = target: glutamate transporter-1 (GLT-1), endogenous in primary astrocytes (not stated (endogenous in primary cortical astrocytes)) (UniProt P43006); test: as above
[4] = target: Nedd4-2 (neuronal precursor cell expressed developmentally down-regulated 4-2), endogenous in primary astrocytes (not stated (endogenous in primary cortical astrocytes)) (UniProt Q8CFI0); test: as above

binding [2]: binds
binding [4]: binds
Molecule: glutamate transporter-1 (GLT-1), endogenous in primary astrocytes (from UniProt P43006 1-572)

binding [4]: binds
binding [3]: binds
B3: caveolin-1, endogenous in primary astrocytes (protein, UniProt P49817 1-178)
chain: T1 sequence

Further lines, the molecule ahead of its results:

Molecule: GLT-1, endogenous in mouse midbrain (from UniProt P43006 1-572)
binding [1]: binds

Molecule: Nedd4-2 (neuronal precursor cell expressed developmentally down-regulated 4-2), endogenous in primary astrocytes (from UniProt Q8CFI0 1-1004) (enzyme)
binding [2]: binds
binding [3]: binds

B1: GLAST, endogenous in mouse midbrain (protein, UniProt P56564 1-543)
chain: MTKSNGEEPRMGGRMERLQQGVRKRTLLAKKKVQSLTKEDVKSYLFRNAFVLLTVTAVIVGTILGFALRPYKMSYREVKYFSFPGELLMRMLQMLVLPLIISSLVTGMAALDSKASGKMGMRAVVYYMTTTIIAVVIGIIIVIIIHPGKGTKENMYREGKIVQVTAADAFLDLIRNMFPPNLVEACFKQFKTSYEKRSFKVPIQSNETLLGAVINNVSEAMETLTRIREEMVPVPGSVNGVNALGLVVFSMCFGFVIGNMKEQGQALREFFDSLNEAIMRLVAVIMWYAPLGILFLIAGKIVEMEDMGVIGGQLAMYTVTVIVGLLIHAVIVLPLLYFLVTRKNPWVFIGGLLQALITALGTSSSSATLPITFKCLEENNGVDKRITRFVLPVGATINMDGTALYEALAAIFIAQVNNFDLNFGQIITISITATAASIGAAGIPQAGLVTMVIVLTSVGLPTDDITLIIAVDWFLDRLRTTTNVLGDSLGAGIVEHLSRHELKNRDVEMGNSVIEENEMKKPYQLIAQDNEPEKPVADSETKM
binding [1]: binds

B2: glutamate/aspartate transporter (GLAST), endogenous in primary astrocytes (protein, UniProt P56564 1-543)
chain: B1 chain
binding [4]: binds
